The experiment in a line: qHTS Assay to Find Inhibitors of Chronic Active B-Cell Receptor Signaling. To be noted: ABC-DLBCL IkBa-CBG/CBR reporter, luminescence ratio (green luciferase fused to IkBa over red control in TMD8 lymphoma cells), 4 h. The essentials: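 Concentration-response series (up to 46 uM) were applied to TMD8 dual-reporter cells for 4 h at 37C with doxycycline. Green/red ratio, after filter-overlap correction, defined %Activity; red signal alone was normalised to basal cells and zero luminescence.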
In general terms: qHTS replaces the single test concentration by a dilution series.

The mark [1] stands for this setting: measured here: CBR red luminescence, cell number.
Setting [2] is: measured here: IkBa-CBG green luminescence.

The other results are listed elsewhere or left out. Shown are side measurements of this screen, not its main read-out; they come without a call. Most of these compounds were active or inconclusive in the main read-out, so they are no random draw. Words in brackets tell the shape of the fitted curve; partial curves, single points and poor fits give uncertain potencies.

Regarding `Fc1ccc(C2C3=C(Nc4ncnn42)c2ccccc2OC3c2ccncc2)cc1` (configuration not stated), the concentration at half-maximal activity (AC50) under setting [1] was 16.4 µM [falling, single point].
As to `COc1ccc(N2C(=O)Cc3c2nc(N)c(C#N)c3N)cc1`, under setting [1], the AC50 was 5.01 µM [rising, partial curve, poor fit].
Turning to `CN(CCc1ccccc1)C(=O)c1cc(COc2cccc(C(F)(F)F)c2)on1`, under setting [1], the AC50 is 8.91 µM [falling, partial curve, poor fit].
In the case of `COc1cc(Cl)c(C)cc1NC(=O)CSCC#N`, under setting [1], the AC50 is 14.6 µM [rising, partial curve].
In the case of `COC(=O)N/N=C/c1cc(C)n(-c2ccccc2)c1C`, the concentration at half-maximal activity (AC50) runs as follows: under setting [1], 18.4 µM [rising, partial curve]; under setting [2], 18.4 µM [falling, partial curve, poor fit].
`Cc1oc(-c2ccccc2)cc1C(=O)Nc1cccc(/C=C\C(=O)O)c1`: the AC50 under setting [2] was 0.112 µM [rising, full curve, poor fit].
With `COC(=O)c1ccc2c(C(C)(C)O)c(C(C)(C)O)[nH]c2c1`, the AC50 under setting [1] is 15.8 µM [rising, single point].
Still for that read-out and setting: the figure for `COc1ccc(C(F)(F)F)cc1N/C=C\c1nnnn1-c1ccccc1` is 10 µM [rising, partial curve].
On the same count and under the same terms, the figure for `CCOC(=O)c1c(NC(=O)Cn2cc([N+](=O)[O-])cn2)sc2c1CCC2` is 3.55 µM [falling, partial curve, poor fit]; for `COc1ccc(C2CC3(CC(C)(C)NC(=O)N3)Oc3cc(O)ccc32)cc1` (configuration not stated) it is 12.6 µM [falling, partial curve].
Consider `CC(=O)C1=C(c2ccccc2)N(C(C)=O)n2c(C)nnc2S1`, for which the AC50 under setting [1] was 17.8 µM [falling, single point].
Consider `Cc1ccc(NC(=O)C(=O)c2c[nH]c3ccccc23)cc1`, for which, under setting [1], the half-maximal activity concentration (AC50) is 1.12 µM [falling, full curve].
As for `Cn1c(=NCC(O)COc2ccccc2)sc2ccccc21` (configuration not stated), under setting [1], the concentration at half-maximal activity (AC50) was 22.4 µM [falling, single point].
In the case of `O=C(Nc1nc2c(F)cccc2s1)c1ccco1`, the AC50 under setting [1] was 11.2 µM [falling, partial curve].
As for `Cc1ccc(NC(=O)COC(=O)C2CSC3(C)CCC(=O)N23)cc1S(=O)(=O)N1CCOCC1` (configuration not stated), the AC50 under setting [1] is 8.91 µM [rising, partial curve, poor fit].
`Cc1ccc(S(=O)(=O)CC(=O)c2cc(C)c(O)c(C)c2)cc1`: the AC50 under setting [1] is 1.78 µM [rising, full curve, poor fit].
The same measure, in the same setting: the figure for `CCCNc1c(NS(=O)(=O)c2ccc(OC)c(OC)c2)c(=O)oc2ccccc12` is 4.47 µM [falling, full curve].
In the case of `COc1ccc(/C=N/n2c(=S)n(C)c3ccccc32)cc1OC`, the concentration at half-maximal activity (AC50) under setting [1] is 25.9 µM [rising, partial curve] and the AC50 under setting [2] was 18.4 µM [falling, partial curve, poor fit].
For `COC(=O)c1cc2oc(C)cc2n1CC(=O)Nc1cc(C)cc(C)c1`, under setting [1], the AC50 is 0.116 µM [falling, full curve, poor fit].
Take `CCCCC1=CC2=CC(=O)C(C)(OC(=O)CC)C(=O)C2=CN1CCN1CCOCC1` (configuration not stated): the AC50 under setting [1] is 35.5 µM [rising, single point].
For `COc1ccccc1NC(=O)CSc1nnc(C2CCCCC2)n1N`, the AC50 under setting [1] was 7.08 µM [falling, partial curve, poor fit].
The same measure, in the same setting: in the case of `O=C1NC(=S)S/C1=C\c1coc2ccccc2c1=O` it was 3.16 µM [rising, full curve, poor fit].
Take `CN1C(=O)C2(SCC(=O)N2c2ccc(Cl)cc2)c2ccccc21` (configuration not stated): the AC50 under setting [1] was 35.5 µM [falling, single point].
`COc1ccc(C(CC(=O)N2CCN(c3ccccc3)CC2)c2c(O)cc(OC)cc2OC)cc1` (configuration not stated): the AC50 under setting [1] was 35.5 µM [falling, single point].
On the same count and under the same terms, in the case of `CC(=O)NC(Cc1ccc(C)cc1)C(=O)NC1CCN(c2ncccc2[N+](=O)[O-])CC1` (configuration not stated) it was 20.6 µM [rising, partial curve, poor fit]; in that of `COc1cccc(NC(=O)/C=C/c2ccccc2[N+](=O)[O-])c1`, 23.1 µM [falling, partial curve, poor fit].
As to `Cc1ccc(-n2ncc3c(SCc4ccccc4)ncnc32)cc1`, under setting [2], the AC50 is 23.1 µM [rising, partial curve, poor fit].
For the molecule `O=C(Nc1ccc2[nH]ccc2c1)c1ccccc1`, the half-maximal activity concentration (AC50) under setting [1] was 14.1 µM [falling, partial curve].
`Cc1cccc(NC(=O)c2nc[nH]c2C(=O)N2CCc3ccccc3C2)c1`: the AC50 under setting [1] is 0.82 µM [falling, full curve, poor fit].
For `CCN1CCc2c(OCC(=O)N3CCCc4ccccc43)cccc2C1=O`, the AC50 under setting [1] was 0.562 µM [falling, full curve, poor fit].
On the same count and under the same terms, in the case of `Cc1cc(C)n2nc(SCC(=O)c3cccs3)nc2n1` it was 35.5 µM [falling, single point]; in that of `COc1ccccc1N1CCN(C2CCCCC2NS(=O)(=O)c2ccc(Cl)cc2)CC1` (configuration not stated), 5.01 µM [rising, partial curve]; in that of `COc1cc(OC)c(-n2cc(-c3ccc(OC)c(OC)c3)[nH]c2=S)cc1Cl`, 1.58 µM [rising, partial curve, poor fit].
As to `O=C(Nc1ccc(S(=O)(=O)N2CCc3ccccc32)cc1)c1ccco1`, under setting [1], the AC50 is 10 µM [falling, partial curve, poor fit].
As for `Cc1ccc(N(Cc2ccccc2)C(=O)Cc2ccc(S(=O)(=O)N3CCOCC3)s2)cc1`, the AC50 under setting [1] is 29.1 µM [falling, single point].
The same measure, in the same setting: in the case of `O=C(CN1CC(=O)Oc2ccccc21)NCc1ccco1` it was 11.2 µM [falling, partial curve]; in that of `COc1cccc(N2C(=O)C(O)=C(C(C)=O)C2c2ccc(OC)c(OC)c2)c1` (configuration not stated), 18.4 µM [rising, single point].
With `Cc1nn(Cc2ccccc2Cl)c(C)c1C(=O)Nc1nnc(C2CC2)s1`, the concentration at half-maximal activity (AC50) under setting [1] is 4.47 µM [falling, single point].
Still for that read-out and setting: in the case of `CC1CCc2c(C(=O)NCc3ccco3)csc2C1` (configuration not stated) it was 2.24 µM [falling, full curve, poor fit]; in that of `CCCCC(CC)CNC(=O)C(=O)c1ccccc1NC(C)=O` (configuration not stated), 8.2 µM [rising, partial curve, poor fit].

The term AC50 denotes the concentration at which the activity in the assay is half-maximal.

The values above are taken from PubChem BioAssay AID493014 (National Center for Advancing Translational Sciences (NCATS), 2011).
